Assay results as given in patent US6440955B1, “Reverse-turn mimetics and methods relating thereto” (Molecumetics Ltd., priority 1999, dated 2002).
Some entries share one result that the patent states for a list of compounds.

By UniProt entry, the sequences of proteins in these tests, tags left out. Residues count along the entry.
UniProt P13612, 34-1032: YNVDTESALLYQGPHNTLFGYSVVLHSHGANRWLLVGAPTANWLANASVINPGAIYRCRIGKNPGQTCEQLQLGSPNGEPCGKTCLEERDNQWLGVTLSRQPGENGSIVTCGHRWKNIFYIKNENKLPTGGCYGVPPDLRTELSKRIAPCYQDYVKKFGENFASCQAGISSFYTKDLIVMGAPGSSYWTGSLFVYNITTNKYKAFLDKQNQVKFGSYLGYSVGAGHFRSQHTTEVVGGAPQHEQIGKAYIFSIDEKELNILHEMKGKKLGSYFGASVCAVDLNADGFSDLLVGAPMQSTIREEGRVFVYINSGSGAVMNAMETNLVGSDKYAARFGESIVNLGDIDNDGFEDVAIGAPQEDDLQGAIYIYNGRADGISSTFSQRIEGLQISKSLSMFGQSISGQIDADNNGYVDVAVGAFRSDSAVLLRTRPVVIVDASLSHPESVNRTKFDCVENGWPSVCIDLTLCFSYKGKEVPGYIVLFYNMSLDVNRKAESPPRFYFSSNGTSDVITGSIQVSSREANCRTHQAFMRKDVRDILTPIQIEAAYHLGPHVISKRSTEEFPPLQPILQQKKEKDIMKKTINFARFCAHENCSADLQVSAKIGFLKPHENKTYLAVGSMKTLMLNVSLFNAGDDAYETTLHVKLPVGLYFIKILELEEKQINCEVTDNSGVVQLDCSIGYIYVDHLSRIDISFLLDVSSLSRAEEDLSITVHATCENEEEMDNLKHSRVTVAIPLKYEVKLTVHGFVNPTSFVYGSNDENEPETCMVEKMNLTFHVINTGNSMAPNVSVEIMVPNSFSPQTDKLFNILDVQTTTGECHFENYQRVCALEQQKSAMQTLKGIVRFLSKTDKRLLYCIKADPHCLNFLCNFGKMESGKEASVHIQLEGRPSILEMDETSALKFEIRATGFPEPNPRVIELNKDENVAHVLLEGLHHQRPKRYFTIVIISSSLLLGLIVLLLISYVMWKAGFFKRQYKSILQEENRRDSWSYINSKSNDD

Each molecule was assayed against T1, α4β1 integrin (Homo sapiens, UniProt P05556+P13612) (assay: Antagonism of binding of CS1 peptide to α4β1 integrin (Ramos cell adhesion to immobilised biotinylated CS1 peptide, calcein AM fluorescence)). Settings: Ramos cells, biotinylated CS1 peptide on NeutrAvidin plate, 37 °C for 1 h.
T1 construct: endogenous in cells; host or cells: Ramos cells
Type: cell-based
CC(C)CN1CC2N(C(=O)C(CCC(=O)O)N2S(=O)(=O)c2ccc3ccccc3c2)C(Cc2ccccc2)C1=O (stereo not drawn) [Compound 40] gave an IC50 of under 100 µM.
With O=C(O)CC1C(=O)N2C(Cc3ccc(O)cc3)C(=O)N(CC(=O)O)CC2N1S(=O)(=O)c1ccc2ccccc2c1 (stereo not drawn) [Compound 5] the IC50 was under 100 µM.
Cc1ccc(S(=O)(=O)N2C(CC(=O)O)C(=O)N3C(Cc4ccc(O)cc4)C(=O)N(CC(=O)O)CC32)cc1 (stereo not drawn) [Compound 4] gave an IC50 of under 100 µM.
With O=C(O)CCC1C(=O)N2C(Cc3ccccc3)C(=O)N(CCC(=O)O)CC2N1S(=O)(=O)c1ccc2ccccc2c1 (stereo not drawn) [Compound 42] the IC50 was under 10 µM.
With CC(C)CN1CC2N(C(=O)C(CCC(=O)O)N2S(=O)(=O)c2cccc3ccccc23)C(Cc2ccc(O)cc2)C1=O (stereo not drawn) [Compound 8] the IC50 was under 100 µM.
With CC(C)CC1C(=O)N(CC(C)C)CC2N1C(=O)C(CCC(=O)O)N2S(=O)(=O)c1ccc(Cl)cc1 (stereo not drawn) [Compound 31] the IC50 was under 100 µM.
CC(C)CN1CC2N(C(=O)C(CCC(=O)O)N2S(=O)(=O)c2ccc(Cl)cc2)C(Cc2ccc(O)cc2)C1=O (stereo not drawn) [Compound 9] was tested, and the IC50 was under 100 µM.
Work on CCC(C)C1C(=O)N(CCC(=O)O)CC2N1C(=O)C(CCC(=O)O)N2S(=O)(=O)c1ccc2ccccc2c1 (stereo not drawn) [Compound 38] yielded an IC50 of under 100 µM.
Work on CC(C)CC1C(=O)N(CC(C)C)CC2N1C(=O)C(CCC(=O)O)N2S(=O)(=O)c1ccc2ccccc2c1 (stereo not drawn) [Compound 32] yielded an IC50 of under 100 µM.
CC(C)CN1CC2N(C(=O)C(CC(=O)O)N2S(=O)(=O)c2ccc(Cl)cc2)C(Cc2ccc(O)cc2)C1=O (stereo not drawn) [Compound 10] showed an IC50 of under 10 µM.

Same assay, conditions: Ramos cells, biotinylated CS1 peptide on NeutrAvidin plate, 37 °C for 1 h; listed as compound 10
CC(C)CN1CC2N(C(=O)C(CC(=O)O)N2S(=O)(=O)c2ccc(Cl)cc2)C(Cc2ccc(O)cc2)C1=O (stereo not drawn) [Compound 10] showed an IC50 of under 100 µM.

Same assay, conditions: Ramos cells, biotinylated CS1 peptide on NeutrAvidin plate, 37 °C for 1 h; listed as compound 42
Molecule O=C(O)CCC1C(=O)N2C(Cc3ccccc3)C(=O)N(CCC(=O)O)CC2N1S(=O)(=O)c1ccc2ccccc2c1 (stereo not drawn) [Compound 42] has an IC50 of under 100 µM.
